Results from patent publication US7329667B2, “CRF receptor antagonists” (Glaxo Group Limited, priority 2001, dated 2008).
Some results were stated once for a whole list of compounds, not compound by compound. For at least one compound, name, drawing or mass did not settle the structure.

Target: recombinant human CRF receptors
Test: CRF receptor binding assay (scintillation proximity, SPA)
Conditions: displacement of 125I-oCRF (CRF1) / 125I-Sauvagine (CRF2) from CHO cell membranes; receptor subtype not stated for these values; read-out: Ki (CRF receptor binding affinity)

SMILES | Ki [nM]
CCCC(CCC)N1CCC2CN(c3ccc(C(F)(F)F)cc3C(F)(F)F)c3nc(C)nc1c32 (stereo not drawn) [3-1-6, 7-Methyl-5-(1-propylbutyl)-1-(2,4-bis-trifluoromethyl-phenyl)-1,2,2a,3,4,5-hexahydro-1,5,6,8-tetraazaacenaphthylene] | < 100
CCCCC1CC2CN(c3ccc(Cl)cc3Cl)c3nc(C)nc(c32)N1CCCC (stereo not drawn) [3-1-10, 4,5-Dibutyl-1-(2,4-dichlorophenyl)-7-methyl-1,2,2a,3,4,5-hexahydro-1,5,6,8-tetraazaacena-phthylene] | < 1000
CCCC(CCC)N1CC2CCN(c3ccc(C(F)(F)F)cc3C(F)(F)F)c3nc(C)nc1c32 (stereo not drawn) [1-1-4, 7-Methyl-1-(1-propylbutyl)-5-(2,4-bis-trifluoromethyl-phenyl)-1,2,2a,3,4,5-hexahydro-1,5,6,8-tetraaza-acenaphthylen] | < 100
CCC(CC)N1CC2CCN(c3ccc(Cl)cc3Cl)c3nc(C)nc1c32 (stereo not drawn) [1-1-1, 5-(2,4-Dichlorophenyl)-1-(1-ethylpropyl)-7-methyl-1,2,2a,3,4,5-hexahydro-1,5,6,8-tetraaza-acenaphthylene] | < 100
CCCC(CCC)N1CCC2CN(c3ccc(Cl)cc3Cl)c3nc(C)nc1c32 (stereo not drawn) [3-1-5, 1-(2,4-Dichlorophenyl)-7-methyl-5-(1-propylbutyl)-1,2,2a,3,4,5-hexahydro-1,5,6,8-tetraaza-acenaphthylene] | < 100
CCCC(CCC)N1CC2CCN(c3ccc(Cl)cc3Cl)c3nc(C)nc1c32 (stereo not drawn) [1-1-5, 5-(2,4-Dichlorophenyl)-7-methyl-1-(1-propylbutyl)-1,2,2a,3,4,5-hexahydro-1,5,6,8-tetraaza-acenaphthylene] | < 100
